Reference: patent publication EP1977765A1, “Peptide prodrugs” (Diatos, priority 2007, dated 2008)
Part of at least one peptide drawing is inferred or uncertain, most often the ends.

Test system: LS 174T tumors
Assay: In vivo anti-tumoral efficacy of doxorubicin conjugates in the LS 174T tumor model
Set-up: species or system NMRI nude mice
Conditions: Experiment 1; dose 24.2 µmol/kg i.v.; higher doses were toxic
Excerpt: Treatments were initiated when the tumors had reached a size of 100 mm^3 (calculated using the following formula: [length x width^2]/2). […] During the course of the experiment, clinical signs, body weight and tumor volume were controlled twice a week. Results are presented as the evolution of mean tumor volume as a function of time. Optimal T/C (ratio of mean tumor volume of treated versus control mice) values were used as a measure of treatment efficacy. The optimal T/C% reflects the maximal tumor growth inhibition achieved. The experiment was repeated twice.

COc1cccc2c1C(=O)c1c(O)c3c(c(O)c1C2=O)CC(O)(C(=O)CO)CC3OC1CC(NC(=O)C(CC(C)C)NC(=O)C(C)NC(=O)C(CC(C)C)NC(=O)C(C)NC(=O)CCC(=O)O)C(O)C(C)O1 (stereo not shown) [Suc-ALAL-dox, Suc-ALAL-doxorubicin]
Optimal T/C (%): 70%
